Record: PubChem BioAssay AID1224830 (NIAID, 2016)

Screen: 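Genes whose knock-down alters the TNF-alpha reporter response to LPS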 (primary screen)
Cells: human THP-1 monocytic leukaemia cells, TNF dual-luciferase reporter clone, PMA-differentiated to macrophage-like cells
Reagents: siRNA pool against human genes, 50 nM
Duration: LPS for 4 h, given about 3 days after siRNA transfection
Conditions: bacterial LPS (TLR4 ligand), 10 ng/ml
Read-out: 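Ratio of firefly to renilla light, scaled to the plate median and expressed as a robust z-score per replicate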
Reading the numbers: TNF reporter robust z-score: higher = stronger TNF reporter response to LPS
Hit rule: 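a well is active when its z-score exceeds 2.8 or falls below -1.5; control wells carry no call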
Here is a random part of about 18,000 reagents. Over the whole deposit, about 2,900 (16%) were called active. 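Calls are made per well; low scores hint the gene aids the LPS response, high scores that it dampens it.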 Repeated entries: four replicate wells of each siRNA pool.

gene	TNF reporter robust z-score	Outcome
EIF5B	-0.87	inactive
EIF5B	0.81	inactive
EIF5B	-0.75	inactive
EIF5B	-0.38	inactive
WDTC1	-0.15	inactive
WDTC1	-0.21	inactive
WDTC1	-0.01	inactive
WDTC1	-0.19	inactive
CNR1	1.16	inactive
CNR1	2.17	inactive
CNR1	0.2	inactive
CNR1	0.84	inactive
KLHL26	-0.41	inactive
KLHL26	-0.92	inactive
KLHL26	-0.87	inactive
KLHL26	-0.3	inactive
PRAMEF8	0.14	inactive
PRAMEF8	0.44	inactive
PRAMEF8	1.29	inactive
PRAMEF8	-0.38	inactive
IARS1	1.79	inactive
IARS1	1.36	inactive
IARS1	0.01	inactive
IARS1	-0.26	inactive
GINS2	-1.91	active
GINS2	-1.84	active
GINS2	-1.34	inactive
GINS2	-1.82	active
ZNF407	-0.12	inactive
ZNF407	0.25	inactive
ZNF407	-0.53	inactive
ZNF407	0.53	inactive
ABAT	-1.42	inactive
ABAT	-1.35	inactive
ABAT	-1.56	active
ABAT	-1.25	inactive
OR13H1	0.09	inactive
OR13H1	0.92	inactive
OR13H1	-0.29	inactive
OR13H1	-0.88	inactive
H3-3A	1.21	inactive
H3-3A	1.25	inactive
H3-3A	-0.11	inactive
H3-3A	0.27	inactive
LMNTD2	0.83	inactive
LMNTD2	0.24	inactive
LMNTD2	1.19	inactive
LMNTD2	-0.26	inactive
CTC1	-1.21	inactive
CTC1	0.4	inactive
CTC1	0.15	inactive
CTC1	0.7	inactive
SOD2	-0.58	inactive
SOD2	-0.45	inactive
SOD2	-0.09	inactive
SOD2	0.27	inactive
PXN	-1.87	active
PXN	-2.41	active
PXN	-2.23	active
PXN	-1.9	active
HECW1	-1.55	active
HECW1	0.52	inactive
HECW1	-1.05	inactive
HECW1	-0.44	inactive
POLH	1.44	inactive
POLH	0.84	inactive
POLH	0.41	inactive
POLH	1.41	inactive
CDIP1	0.18	inactive
CDIP1	0.49	inactive
CDIP1	1.09	inactive
NHERF4	1.25	inactive
NHERF4	-0.02	inactive
NHERF4	0.59	inactive
NHERF4	-0.11	inactive
YIPF4	1.23	inactive
YIPF4	0.28	inactive
YIPF4	0.74	inactive
YIPF4	0.62	inactive
HRCT1	-0.97	inactive
HRCT1	-1.27	inactive
HRCT1	-0.76	inactive
HRCT1	-0.49	inactive
CD300E	0.92	inactive
CD300E	0.31	inactive
CD300E	-0.23	inactive
CD300E	0.22	inactive
GPD1L	1.17	inactive
GPD1L	1.13	inactive
GPD1L	0.4	inactive
GPD1L	1.14	inactive
HPS1	2.04	inactive
HPS1	1.81	inactive
HPS1	1.6	inactive
HPS1	3.31	active
MTMR7	-0.17	inactive
MTMR7	-1.11	inactive
MTMR7	-1.33	inactive
MTMR7	-0.94	inactive
ATP5MG	0.01	inactive
ATP5MG	0.02	inactive
ATP5MG	-0.01	inactive
ATP5MG	0.18	inactive
ELMOD2	2.78	inactive
ELMOD2	0.39	inactive
ELMOD2	0.84	inactive
ELMOD2	1.33	inactive
PDLIM1	0.54	inactive
PDLIM1	0.97	inactive
PDLIM1	-0.25	inactive
PDLIM1	0.2	inactive
EEPD1	0.08	inactive
EEPD1	1.3	inactive
EEPD1	0.67	inactive
EEPD1	0.14	inactive
PTPN23	-0.08	inactive
PTPN23	0.62	inactive
PTPN23	-0.11	inactive
PTPN23	1.9	inactive
POLL	0.87	inactive
POLL	2.07	inactive
POLL	5.13	active
POLL	-0.28	inactive
IFITM5	-0.67	inactive
IFITM5	1.72	inactive
IFITM5	1.43	inactive
IFITM5	-0.06	inactive
PRKAR2A	-0.79	inactive
PRKAR2A	0.91	inactive
PRKAR2A	-0.5	inactive
PRKAR2A	-1.45	inactive
DENND2D	0.31	inactive
DENND2D	0.98	inactive
DENND2D	0.84	inactive
DENND2D	-0.11	inactive
DAOA	-0.88	inactive
DAOA	-0.41	inactive
DAOA	-1.22	inactive
DAOA	-0.75	inactive
SELE	0.16	inactive
SELE	-0.07	inactive
SELE	0.68	inactive
SELE	-0.27	inactive

Already shown: 12 of the entries above.
gene	TNF reporter robust z-score	Outcome
EIF5B	-0.38	inactive
WDTC1	-0.15	inactive
WDTC1	-0.21	inactive
WDTC1	-0.01	inactive
WDTC1	-0.19	inactive
CNR1	1.16	inactive
CNR1	2.17	inactive
CNR1	0.2	inactive
CNR1	0.84	inactive
KLHL26	-0.41	inactive
KLHL26	-0.92	inactive
KLHL26	-0.87	inactive
